{
  "source": "paper PMC11040006",
  "about": "“Molecular basis of an atypical dsDNA 5mC/6mA bifunctional dioxygenase CcTet from Coprinopsis cinerea in catalyzing dsDNA 5mC demethylation” (Nucleic Acids Research, 2024)",
  "biological_target": "T1, CcTet-ΔN16 (Coprinopsis cinerea) (UniProt A8P1J0)",
  "T1 sequence (looked up, limits assumed)": "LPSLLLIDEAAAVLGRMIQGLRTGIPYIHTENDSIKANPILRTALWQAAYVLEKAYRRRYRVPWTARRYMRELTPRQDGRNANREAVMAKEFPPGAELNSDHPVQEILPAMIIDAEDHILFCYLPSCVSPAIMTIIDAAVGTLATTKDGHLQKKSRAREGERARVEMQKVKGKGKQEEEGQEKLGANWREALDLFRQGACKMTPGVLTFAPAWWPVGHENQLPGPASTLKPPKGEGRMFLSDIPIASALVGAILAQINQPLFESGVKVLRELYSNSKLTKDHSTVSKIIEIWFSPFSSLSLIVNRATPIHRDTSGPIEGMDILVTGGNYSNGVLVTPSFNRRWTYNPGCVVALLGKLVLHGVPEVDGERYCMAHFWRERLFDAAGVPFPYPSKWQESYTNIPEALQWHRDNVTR",
  "experiment": "MST",
  "conditions": "5mC at position 8 of strand 1; MST: NT-495 labeled protein, room temperature, 5 min incubation, buffer not stated (protein gel-filtration buffer 20 mM HEPES pH 7.0, 100 mM NaCl, 1 mM DTT); recombinant protein; protein details: N-terminal His-Sumo1, removed by Ulp1",
  "note": "The exact form of at least one protein or probe is not confirmed. At least one verdict rests on a figure or table, not on a statement of the authors. Tags and fusion partners may be left off the protein sequences shown.",
  "data": [
    {"sequence": "TCTGGAACGGAATTCTTCA (double strand) [19-bp 5mC-dsDNA]", "values": [
      {"measurement": "binding result", "result": "binds"}
    ]}
  ]
}
